Results are given in words; binding and its absence hold for the method and conditions named. Binding seen in cells or lysates may run through a third protein. Some binding calls cover weakened binding; strength is not graded here. Sequences can lack the tags named with a protein.
Target: T1, GFP-Bucky ball (zebrafish) (UniProt H0WFA5)
T1 sequence: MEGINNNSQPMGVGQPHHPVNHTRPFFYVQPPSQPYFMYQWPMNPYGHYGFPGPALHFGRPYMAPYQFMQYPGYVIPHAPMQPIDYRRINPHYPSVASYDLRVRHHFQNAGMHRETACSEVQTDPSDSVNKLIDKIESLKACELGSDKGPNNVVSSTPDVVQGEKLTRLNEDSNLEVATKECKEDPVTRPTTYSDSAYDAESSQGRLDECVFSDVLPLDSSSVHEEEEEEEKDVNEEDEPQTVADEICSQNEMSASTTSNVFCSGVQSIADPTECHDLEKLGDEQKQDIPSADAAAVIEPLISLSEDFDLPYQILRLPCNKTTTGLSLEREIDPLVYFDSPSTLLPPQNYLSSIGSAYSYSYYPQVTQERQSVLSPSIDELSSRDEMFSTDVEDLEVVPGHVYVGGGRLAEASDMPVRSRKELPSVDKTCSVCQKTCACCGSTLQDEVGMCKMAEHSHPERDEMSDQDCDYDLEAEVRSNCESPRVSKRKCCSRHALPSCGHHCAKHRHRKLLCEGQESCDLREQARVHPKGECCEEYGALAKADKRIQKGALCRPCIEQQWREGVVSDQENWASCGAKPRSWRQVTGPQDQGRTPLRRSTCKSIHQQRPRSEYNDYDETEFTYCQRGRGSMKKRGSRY
Experiment: co-IP; HEK293 cells co-transfected with pCS3-MT-Rbpms constructs and pCS3-GFP-Buc (or pCS3-GFP control); IP from the supernatant of cell lysates (including mRNA) with anti-GFP 3E6 antibody and Protein G magnetic beads; blotted with anti-Myc and anti-GFP

Sequences of proteins named here, by UniProt entry; tags and fusion partners are left off.
UniProt Q6DH13: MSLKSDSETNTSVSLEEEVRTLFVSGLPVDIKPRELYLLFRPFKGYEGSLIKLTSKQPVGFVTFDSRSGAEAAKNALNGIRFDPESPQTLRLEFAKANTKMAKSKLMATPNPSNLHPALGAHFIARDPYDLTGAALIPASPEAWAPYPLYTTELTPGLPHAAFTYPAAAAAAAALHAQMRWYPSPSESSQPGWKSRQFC

Substance: Myc-tagged zebrafish Rbpms2a (from UniProt Q6DH13 1-199)
- binding: binds

From article PMC6049948
